Results as given in article PMC5458078, “Global mapping of CARM1 substrates defines enzyme specificity and substrate recognition” (Nature Communications, 2017).
These are yes or no findings as the source states them, for the method shown. Binding seen in cells or lysates may run through a third protein. Some results given as binding are weak or reduced against the parent protein; the word gives no strength. Tags and fused reporters may be left off the sequences shown.

The chains behind the UniProt entries cited, without tags or fusion partners.
UniProt Q92922: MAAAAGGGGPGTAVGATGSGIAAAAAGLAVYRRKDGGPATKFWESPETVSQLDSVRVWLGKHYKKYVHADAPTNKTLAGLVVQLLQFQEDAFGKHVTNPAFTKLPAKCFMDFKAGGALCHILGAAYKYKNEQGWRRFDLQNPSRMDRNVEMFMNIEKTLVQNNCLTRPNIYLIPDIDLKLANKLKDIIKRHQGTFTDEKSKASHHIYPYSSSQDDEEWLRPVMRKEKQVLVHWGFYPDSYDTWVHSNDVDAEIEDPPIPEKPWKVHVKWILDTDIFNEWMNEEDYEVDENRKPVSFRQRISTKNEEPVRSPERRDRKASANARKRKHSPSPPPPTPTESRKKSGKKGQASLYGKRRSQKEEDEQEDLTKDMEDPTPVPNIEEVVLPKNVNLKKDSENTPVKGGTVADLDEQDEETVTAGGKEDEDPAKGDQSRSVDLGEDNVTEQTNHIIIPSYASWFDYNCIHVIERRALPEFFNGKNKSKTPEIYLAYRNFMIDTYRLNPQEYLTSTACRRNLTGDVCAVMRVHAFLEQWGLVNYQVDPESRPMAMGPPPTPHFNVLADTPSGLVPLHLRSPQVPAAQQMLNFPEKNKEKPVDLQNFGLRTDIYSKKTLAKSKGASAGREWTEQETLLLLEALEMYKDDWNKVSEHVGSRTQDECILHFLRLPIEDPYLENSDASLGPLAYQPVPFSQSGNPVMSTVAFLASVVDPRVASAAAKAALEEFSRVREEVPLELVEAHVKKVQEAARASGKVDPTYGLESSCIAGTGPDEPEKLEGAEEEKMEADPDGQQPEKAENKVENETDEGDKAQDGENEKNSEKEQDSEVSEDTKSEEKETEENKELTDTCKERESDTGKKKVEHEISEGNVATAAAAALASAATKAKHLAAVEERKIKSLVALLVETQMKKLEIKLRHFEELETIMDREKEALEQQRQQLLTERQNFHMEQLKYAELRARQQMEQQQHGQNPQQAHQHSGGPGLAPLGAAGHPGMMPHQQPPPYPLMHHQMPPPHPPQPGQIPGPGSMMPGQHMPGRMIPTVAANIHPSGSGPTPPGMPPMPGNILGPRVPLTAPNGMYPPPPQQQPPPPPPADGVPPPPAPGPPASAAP
UniProt Q9Y6Q9: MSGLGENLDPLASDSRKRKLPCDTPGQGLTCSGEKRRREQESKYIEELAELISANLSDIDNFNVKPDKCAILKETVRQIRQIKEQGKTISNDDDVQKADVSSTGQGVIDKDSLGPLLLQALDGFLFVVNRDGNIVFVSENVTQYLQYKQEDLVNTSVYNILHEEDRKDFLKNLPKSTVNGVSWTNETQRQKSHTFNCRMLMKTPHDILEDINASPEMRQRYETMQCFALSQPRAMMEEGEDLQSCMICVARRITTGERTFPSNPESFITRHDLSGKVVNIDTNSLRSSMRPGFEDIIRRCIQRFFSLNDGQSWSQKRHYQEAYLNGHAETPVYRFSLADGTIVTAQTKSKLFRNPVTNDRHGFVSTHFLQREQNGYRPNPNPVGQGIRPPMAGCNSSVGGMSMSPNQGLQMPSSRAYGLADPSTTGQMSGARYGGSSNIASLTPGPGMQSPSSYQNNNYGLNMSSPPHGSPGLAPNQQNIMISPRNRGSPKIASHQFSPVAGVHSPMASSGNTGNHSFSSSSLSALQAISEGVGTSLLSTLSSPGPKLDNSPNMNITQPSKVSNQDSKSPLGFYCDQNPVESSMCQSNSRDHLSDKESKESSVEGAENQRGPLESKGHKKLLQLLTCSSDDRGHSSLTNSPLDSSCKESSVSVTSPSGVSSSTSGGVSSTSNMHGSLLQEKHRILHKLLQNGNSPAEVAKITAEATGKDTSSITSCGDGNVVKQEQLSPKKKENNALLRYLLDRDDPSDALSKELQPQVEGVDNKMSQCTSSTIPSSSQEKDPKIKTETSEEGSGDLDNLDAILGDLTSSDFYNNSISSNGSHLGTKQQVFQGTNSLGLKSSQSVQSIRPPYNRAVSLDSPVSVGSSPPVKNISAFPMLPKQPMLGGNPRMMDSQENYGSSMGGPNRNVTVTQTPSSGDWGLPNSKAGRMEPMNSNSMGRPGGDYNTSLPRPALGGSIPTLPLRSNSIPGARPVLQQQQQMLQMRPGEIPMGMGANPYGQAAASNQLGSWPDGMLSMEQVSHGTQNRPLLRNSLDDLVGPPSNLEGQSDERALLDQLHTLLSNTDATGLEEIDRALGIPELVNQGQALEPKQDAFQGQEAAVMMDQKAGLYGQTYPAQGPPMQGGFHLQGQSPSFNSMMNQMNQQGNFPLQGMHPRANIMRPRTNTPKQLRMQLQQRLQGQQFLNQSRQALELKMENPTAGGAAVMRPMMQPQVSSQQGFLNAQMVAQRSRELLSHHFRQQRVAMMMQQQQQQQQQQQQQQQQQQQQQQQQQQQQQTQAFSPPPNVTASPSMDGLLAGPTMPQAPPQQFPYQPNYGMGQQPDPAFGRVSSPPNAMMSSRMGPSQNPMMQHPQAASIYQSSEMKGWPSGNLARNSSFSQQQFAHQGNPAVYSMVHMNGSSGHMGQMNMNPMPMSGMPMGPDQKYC
UniProt P11940: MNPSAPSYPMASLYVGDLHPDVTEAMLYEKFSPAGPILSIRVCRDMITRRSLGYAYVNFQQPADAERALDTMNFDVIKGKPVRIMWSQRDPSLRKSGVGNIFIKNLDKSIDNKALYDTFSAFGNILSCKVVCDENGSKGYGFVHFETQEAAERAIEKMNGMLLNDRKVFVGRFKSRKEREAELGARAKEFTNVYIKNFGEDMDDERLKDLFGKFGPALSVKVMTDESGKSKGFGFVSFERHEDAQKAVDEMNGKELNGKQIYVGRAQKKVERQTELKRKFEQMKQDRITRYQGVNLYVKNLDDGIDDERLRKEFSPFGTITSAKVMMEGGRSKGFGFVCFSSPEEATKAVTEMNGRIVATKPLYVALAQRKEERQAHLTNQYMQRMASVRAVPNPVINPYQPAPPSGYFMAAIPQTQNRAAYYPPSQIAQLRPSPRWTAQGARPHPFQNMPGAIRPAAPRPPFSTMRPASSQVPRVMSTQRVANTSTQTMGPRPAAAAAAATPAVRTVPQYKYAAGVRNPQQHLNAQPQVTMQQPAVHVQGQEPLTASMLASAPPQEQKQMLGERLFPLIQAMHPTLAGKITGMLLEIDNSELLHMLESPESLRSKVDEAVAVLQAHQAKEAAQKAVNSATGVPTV

Key:
[1] = target: T1, FLAG-tagged CARM1 full-length (coactivator-associated arginine methyltransferase 1) (human) (UniProt Q86X55); assay: co-IP; FLAG-tagged CARM1 constructs transiently transfected into HEK293T CARM1 KO cells; CARM1 immunoprecipitated with anti-FLAG M2 resin; partners detected by western blot with the respective antibodies or ADMA antibodies
T1 sequence: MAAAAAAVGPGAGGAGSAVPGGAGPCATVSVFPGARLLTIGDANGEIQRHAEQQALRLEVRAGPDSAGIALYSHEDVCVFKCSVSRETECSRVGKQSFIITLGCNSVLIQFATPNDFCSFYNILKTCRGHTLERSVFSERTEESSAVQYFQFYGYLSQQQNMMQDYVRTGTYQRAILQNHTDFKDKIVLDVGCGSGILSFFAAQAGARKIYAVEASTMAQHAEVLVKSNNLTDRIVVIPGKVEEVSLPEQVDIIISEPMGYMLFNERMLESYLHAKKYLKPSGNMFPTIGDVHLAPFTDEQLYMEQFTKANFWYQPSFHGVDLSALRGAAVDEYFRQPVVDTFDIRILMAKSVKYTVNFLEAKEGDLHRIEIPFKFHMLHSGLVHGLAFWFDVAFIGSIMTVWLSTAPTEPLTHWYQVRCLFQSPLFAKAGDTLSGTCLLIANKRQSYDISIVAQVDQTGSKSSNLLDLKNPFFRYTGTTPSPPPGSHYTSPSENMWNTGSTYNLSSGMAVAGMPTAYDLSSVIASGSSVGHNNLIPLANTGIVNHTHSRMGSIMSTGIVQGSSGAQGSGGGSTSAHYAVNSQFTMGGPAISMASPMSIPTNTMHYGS

[2] = target: T2, FLAG-tagged CARM1 28–608 (human) (UniProt Q86X55); assay: as above
T2 sequence: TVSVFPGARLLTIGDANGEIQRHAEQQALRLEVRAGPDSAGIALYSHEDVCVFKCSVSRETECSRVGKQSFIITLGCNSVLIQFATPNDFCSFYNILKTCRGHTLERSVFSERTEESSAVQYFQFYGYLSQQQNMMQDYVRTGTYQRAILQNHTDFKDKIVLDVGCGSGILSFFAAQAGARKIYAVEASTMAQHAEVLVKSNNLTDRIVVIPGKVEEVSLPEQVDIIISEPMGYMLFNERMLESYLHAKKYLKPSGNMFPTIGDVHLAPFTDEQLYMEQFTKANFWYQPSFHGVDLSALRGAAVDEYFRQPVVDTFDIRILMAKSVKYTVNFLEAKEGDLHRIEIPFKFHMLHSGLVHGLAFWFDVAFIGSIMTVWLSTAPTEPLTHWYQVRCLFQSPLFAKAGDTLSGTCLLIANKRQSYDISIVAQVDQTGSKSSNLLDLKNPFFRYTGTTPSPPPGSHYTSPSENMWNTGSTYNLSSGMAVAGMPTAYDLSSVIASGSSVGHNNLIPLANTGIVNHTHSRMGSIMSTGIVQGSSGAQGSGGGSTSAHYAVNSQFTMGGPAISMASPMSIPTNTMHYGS

## BAF155 (from UniProt Q92922 1-1105)
[1]
  binding: binds
[2]
  binding: binds

## NCOA3 (from UniProt Q9Y6Q9 1-1424)
[1]
  binding: binds
[2]
  binding: binds

## PABP1 (from UniProt P11940 1-636)
[1]
  binding: binds
[2]
  binding: binds
